The values below come from publication PMC10697876.

By UniProt entry, the sequences of proteins in these tests, tags left out.
UniProt O88569: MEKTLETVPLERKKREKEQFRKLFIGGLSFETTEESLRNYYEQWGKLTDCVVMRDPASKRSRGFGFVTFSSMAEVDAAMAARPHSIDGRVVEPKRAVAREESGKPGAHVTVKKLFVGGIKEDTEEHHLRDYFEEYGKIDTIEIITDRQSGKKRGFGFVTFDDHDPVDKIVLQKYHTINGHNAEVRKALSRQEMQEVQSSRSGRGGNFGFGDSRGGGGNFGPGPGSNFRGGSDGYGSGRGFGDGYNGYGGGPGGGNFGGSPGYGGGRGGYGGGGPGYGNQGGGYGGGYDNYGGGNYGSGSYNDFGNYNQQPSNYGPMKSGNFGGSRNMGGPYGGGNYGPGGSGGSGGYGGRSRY

These are yes or no findings as the source states them, for the method shown. In cells and extracts the contact can be indirect. Some binding calls cover weakened binding; strength is not graded here.

In assay [1] the target is HNRNPA2B1 (mouse (endogenous in RAW264.7)) (UniProt O88569). The assay is described as follows: co-IP; RAW264.7 cells treated with IL-4 plus IL-10 for 24 h; after immunoprecipitation the samples were washed and incubated with RNase; Western blot.
Assay [2] shares this target. Description: co-IP; RAW264.7 cells treated with IL-4 (20 ng/ml) plus IL-10 (10 ng/ml) for 24 h (M2 macrophages); immunoprecipitation, Western blot; IgG as control; no RNase. (In western blotting, separated proteins are transferred to a membrane and probed.)

B1: microRNA microprocessor complex protein DGCR8 (protein, UniProt Q9EQM6 1-773)
chain: METYESPSPLPREPAGEAMMENRACPFQVLPHEQSPPPPLQTSSDAEVMDVGSGGDGQSEPPADDPFNFYGASLLSKGSFSKGRLLIDPNCSGHSPRTARHAPAVRKFSPDLKLLKDVKISVSFTESCRSKDRKVLYTGVERSTRPECGQLLSPVSGDVHACPFGGSVGNGVGLGGESADKKDEENELDQEKRVEYAVLDELEDFTDNLELDEEGTGGFTAKAIVQRDRVDEEALNFSYEDDFDNDVDALLEEGLCAPKKRRMEEKYGGDSDHPSDGETSVQPMMTKIKTVLKSRGRPPTEPLPDGWIMTFHNSGVPVYLHRESRVVTWSRPYFLGTGSIRKHDPPLSSIPCLHYKKMKDNEEREQNCDLAPSGEVSPVKPLGRSAELDFPLEEPDSMGGDSGSMDEKDPLGAEAAAGALGQVKAKVEVCKDESVDLEEFRNYLEKRFDFEQVTVKKFRTWAERRQFNREMKRKQAESERPILPANQKLITLSVQDAPTKKEFVINPNGKSEVCILHEYMQRVLKVRPVYNFFECENPSEPFGASVTIDGVTYGSGTASSKKLAKNKAARATLEILIPDFVKQTSEEKPKDSEELEYFNHISIEDSRVYELTSKAGLLSPYQILHECLKRNHGMGDTSIKFEVVPGKNQKSEYVMACGKHTVRGWCKNKRVGKQLASQKILQLLHPHVKNWGSLLRMYGRESSKMVKQETSDKSVIELQQYAKKNRPNLHILSKLQEEMKRLAAEREETRKKPKMSIVASAQPGGEPLCTVDV
B1: the binding entry in assay [1] and in assay [2] was “binds” each time.
